Assay results from paper PMC8880767.
These are yes or no findings as the source states them, for the method shown. In cells and extracts the contact can be indirect. Some results given as binding are weak or reduced against the parent protein; the word gives no strength.

Amino acid sequences for entries named in this document (tags omitted).
UniProt P39938: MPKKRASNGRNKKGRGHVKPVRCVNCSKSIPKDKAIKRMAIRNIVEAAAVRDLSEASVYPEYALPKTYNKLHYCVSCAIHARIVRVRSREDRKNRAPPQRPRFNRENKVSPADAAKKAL

T1: Tsr2-TAP (S. cerevisiae) (UniProt Q06672)
T1 sequence: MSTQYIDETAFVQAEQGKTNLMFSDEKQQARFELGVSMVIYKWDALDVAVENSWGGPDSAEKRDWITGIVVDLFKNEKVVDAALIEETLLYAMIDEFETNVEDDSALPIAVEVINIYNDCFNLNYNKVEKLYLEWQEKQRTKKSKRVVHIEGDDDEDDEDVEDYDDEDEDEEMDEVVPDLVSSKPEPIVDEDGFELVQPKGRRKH

T2: Rps3-TAP (Rps3–CBP–protein A) (S. cerevisiae) (UniProt P05750)
T2 sequence: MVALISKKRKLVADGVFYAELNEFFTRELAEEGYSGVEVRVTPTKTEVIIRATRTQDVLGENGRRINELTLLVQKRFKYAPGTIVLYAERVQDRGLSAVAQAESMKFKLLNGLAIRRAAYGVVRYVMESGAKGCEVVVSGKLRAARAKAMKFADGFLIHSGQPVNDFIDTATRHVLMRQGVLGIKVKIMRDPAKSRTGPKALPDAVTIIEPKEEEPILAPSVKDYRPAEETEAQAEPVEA


How the values were obtained:
Tsr2-TAP (S. cerevisiae) = molecular target: T1, Tsr2-TAP (S. cerevisiae); assay: pull-down; Tsr2-TAP from yeast lysate on IgG sepharose, wash buffer with 500 mM NaCl, TEV elution, Western blot; cells with or without 1 M NaCl
[1] = molecular target: T2, Rps3-TAP (Rps3–CBP–protein A) (S. cerevisiae); assay: pull-down; Rps3-TAP (preexisting) ribosomes from yeast lysate on IgG sepharose, ~2 h 4°C; washed with 50 mM tris pH 7.5, 100 mM NaCl, 10 mM MgCl2, 0.075% NP-40; eluted with TEV protease; Western blot; cells with or without 1 M NaCl or 1 M sorbitol, or after 1 h recovery

binding (Tsr2-TAP (S. cerevisiae))	binding [1]	Molecule
binds		Rps26-HA (from UniProt P39938 1-119)
	binds	Rps8 (protein, UniProt P0CX39 1-200) MGISRDSRHKRSATGAKRAQFRKKRKFELGRQPANTKIGAKRIHSVRTRGGNKKYRALRIETGNFSWASEGISKKTRIAGVVYHPSNNELVRTNTLTKAAIVQIDATPFRQWFEAHYGQTLGKKKNVKEEETVAKSKNAERKWAARAASAKIESSVESQFSAGRLYACISSRPGQSGRCDGYILEGEELAFYLRRLTAKK
